Source: the supplement of paper PMC10849652
The list shows a part of the results.

Amino acid sequences for entries named in this document (tags omitted). A change or cut given only in a name is not applied to a line headed by its entry.
UniProt Q7L1V2: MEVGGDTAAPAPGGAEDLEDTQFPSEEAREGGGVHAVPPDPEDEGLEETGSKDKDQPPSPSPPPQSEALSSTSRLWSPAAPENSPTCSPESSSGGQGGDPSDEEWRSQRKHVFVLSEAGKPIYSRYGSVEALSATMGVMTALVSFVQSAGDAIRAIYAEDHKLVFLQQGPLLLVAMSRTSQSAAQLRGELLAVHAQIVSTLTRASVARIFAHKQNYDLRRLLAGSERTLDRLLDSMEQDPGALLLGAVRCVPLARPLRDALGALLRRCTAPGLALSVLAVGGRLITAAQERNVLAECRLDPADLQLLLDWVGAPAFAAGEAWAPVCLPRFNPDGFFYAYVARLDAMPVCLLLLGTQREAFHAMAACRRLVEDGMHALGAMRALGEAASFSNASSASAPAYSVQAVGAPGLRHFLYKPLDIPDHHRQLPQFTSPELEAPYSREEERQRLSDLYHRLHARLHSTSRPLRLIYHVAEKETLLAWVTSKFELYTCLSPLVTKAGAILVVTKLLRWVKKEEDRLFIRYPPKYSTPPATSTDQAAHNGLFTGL
UniProt Q9UBU8, whole entry, looked up: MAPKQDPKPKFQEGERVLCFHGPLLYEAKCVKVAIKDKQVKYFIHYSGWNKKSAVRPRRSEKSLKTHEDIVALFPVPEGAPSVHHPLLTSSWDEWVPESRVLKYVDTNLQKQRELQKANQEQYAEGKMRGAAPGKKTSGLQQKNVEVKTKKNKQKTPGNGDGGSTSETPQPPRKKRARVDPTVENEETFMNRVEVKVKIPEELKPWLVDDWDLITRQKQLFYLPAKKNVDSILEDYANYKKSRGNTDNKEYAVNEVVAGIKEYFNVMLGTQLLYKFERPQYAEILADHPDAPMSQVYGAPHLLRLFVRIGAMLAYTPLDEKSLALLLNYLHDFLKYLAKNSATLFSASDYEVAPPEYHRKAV
UniProt Q7RTP6, whole entry, looked up: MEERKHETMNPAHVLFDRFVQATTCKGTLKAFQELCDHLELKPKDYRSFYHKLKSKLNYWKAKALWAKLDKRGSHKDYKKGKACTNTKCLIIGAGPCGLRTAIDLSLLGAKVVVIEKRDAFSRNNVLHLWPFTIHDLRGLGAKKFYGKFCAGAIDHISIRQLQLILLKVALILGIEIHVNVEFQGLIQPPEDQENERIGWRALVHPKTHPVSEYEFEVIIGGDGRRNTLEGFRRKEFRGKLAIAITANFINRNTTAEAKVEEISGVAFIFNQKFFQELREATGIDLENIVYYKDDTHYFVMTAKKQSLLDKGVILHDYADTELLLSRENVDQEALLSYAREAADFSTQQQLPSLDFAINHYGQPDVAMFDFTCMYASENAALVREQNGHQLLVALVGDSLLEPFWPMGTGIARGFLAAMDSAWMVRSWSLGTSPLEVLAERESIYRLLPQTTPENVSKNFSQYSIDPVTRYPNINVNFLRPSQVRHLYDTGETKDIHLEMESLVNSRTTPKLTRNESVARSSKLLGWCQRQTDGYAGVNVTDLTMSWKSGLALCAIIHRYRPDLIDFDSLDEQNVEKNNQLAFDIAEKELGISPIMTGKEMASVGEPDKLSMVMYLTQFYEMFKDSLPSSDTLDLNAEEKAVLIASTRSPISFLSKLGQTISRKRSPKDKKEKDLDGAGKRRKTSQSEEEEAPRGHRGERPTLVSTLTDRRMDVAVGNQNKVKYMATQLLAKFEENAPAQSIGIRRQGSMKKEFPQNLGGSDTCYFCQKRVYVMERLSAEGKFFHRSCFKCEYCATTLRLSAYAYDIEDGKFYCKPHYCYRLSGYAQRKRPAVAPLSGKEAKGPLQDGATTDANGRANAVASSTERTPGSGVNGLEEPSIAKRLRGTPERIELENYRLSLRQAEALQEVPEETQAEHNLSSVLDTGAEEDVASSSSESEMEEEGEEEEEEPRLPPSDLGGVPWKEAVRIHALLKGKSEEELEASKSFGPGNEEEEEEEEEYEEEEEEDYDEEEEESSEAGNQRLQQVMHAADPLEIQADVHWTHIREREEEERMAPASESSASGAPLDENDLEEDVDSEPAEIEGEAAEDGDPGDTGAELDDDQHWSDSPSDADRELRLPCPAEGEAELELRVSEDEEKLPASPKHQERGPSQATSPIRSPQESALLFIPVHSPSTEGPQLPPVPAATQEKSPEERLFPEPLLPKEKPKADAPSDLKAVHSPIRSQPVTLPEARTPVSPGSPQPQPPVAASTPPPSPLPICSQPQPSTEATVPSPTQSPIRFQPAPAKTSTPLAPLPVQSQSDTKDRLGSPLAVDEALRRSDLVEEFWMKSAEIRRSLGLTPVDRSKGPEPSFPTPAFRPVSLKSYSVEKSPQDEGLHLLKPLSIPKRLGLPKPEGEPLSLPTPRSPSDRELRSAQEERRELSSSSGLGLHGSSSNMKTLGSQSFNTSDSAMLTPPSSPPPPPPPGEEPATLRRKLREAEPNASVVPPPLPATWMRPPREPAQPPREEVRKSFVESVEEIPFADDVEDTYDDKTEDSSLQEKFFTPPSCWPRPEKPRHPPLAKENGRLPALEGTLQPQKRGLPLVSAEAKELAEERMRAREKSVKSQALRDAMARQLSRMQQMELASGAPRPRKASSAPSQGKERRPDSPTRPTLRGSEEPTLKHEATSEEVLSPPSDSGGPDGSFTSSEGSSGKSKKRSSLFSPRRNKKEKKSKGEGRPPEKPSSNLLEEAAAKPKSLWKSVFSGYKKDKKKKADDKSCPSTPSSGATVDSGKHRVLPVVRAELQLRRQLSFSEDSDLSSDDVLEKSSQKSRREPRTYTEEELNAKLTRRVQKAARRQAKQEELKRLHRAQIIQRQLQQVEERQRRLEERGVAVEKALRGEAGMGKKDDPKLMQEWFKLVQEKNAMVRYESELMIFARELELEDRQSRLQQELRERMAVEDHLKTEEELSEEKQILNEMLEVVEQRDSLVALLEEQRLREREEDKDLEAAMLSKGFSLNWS
UniProt Q03111: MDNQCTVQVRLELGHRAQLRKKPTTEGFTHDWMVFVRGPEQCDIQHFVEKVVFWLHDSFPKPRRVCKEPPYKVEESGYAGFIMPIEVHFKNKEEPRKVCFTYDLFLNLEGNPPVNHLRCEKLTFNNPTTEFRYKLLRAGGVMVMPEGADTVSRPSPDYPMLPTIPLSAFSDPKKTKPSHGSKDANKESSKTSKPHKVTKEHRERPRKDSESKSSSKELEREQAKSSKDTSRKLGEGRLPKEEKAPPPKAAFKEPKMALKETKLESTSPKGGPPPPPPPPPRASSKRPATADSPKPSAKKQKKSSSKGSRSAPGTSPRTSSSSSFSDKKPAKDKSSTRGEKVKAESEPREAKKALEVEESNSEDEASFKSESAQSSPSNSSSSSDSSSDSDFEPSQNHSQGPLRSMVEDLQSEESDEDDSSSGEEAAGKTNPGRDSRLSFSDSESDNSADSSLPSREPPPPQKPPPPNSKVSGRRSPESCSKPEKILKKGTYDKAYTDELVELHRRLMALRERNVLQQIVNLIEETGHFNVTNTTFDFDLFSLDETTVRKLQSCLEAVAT
UniProt Q9BRT3: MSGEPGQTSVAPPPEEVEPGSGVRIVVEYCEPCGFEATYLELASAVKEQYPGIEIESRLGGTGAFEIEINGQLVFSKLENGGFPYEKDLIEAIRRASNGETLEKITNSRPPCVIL
UniProt Q9NZW5: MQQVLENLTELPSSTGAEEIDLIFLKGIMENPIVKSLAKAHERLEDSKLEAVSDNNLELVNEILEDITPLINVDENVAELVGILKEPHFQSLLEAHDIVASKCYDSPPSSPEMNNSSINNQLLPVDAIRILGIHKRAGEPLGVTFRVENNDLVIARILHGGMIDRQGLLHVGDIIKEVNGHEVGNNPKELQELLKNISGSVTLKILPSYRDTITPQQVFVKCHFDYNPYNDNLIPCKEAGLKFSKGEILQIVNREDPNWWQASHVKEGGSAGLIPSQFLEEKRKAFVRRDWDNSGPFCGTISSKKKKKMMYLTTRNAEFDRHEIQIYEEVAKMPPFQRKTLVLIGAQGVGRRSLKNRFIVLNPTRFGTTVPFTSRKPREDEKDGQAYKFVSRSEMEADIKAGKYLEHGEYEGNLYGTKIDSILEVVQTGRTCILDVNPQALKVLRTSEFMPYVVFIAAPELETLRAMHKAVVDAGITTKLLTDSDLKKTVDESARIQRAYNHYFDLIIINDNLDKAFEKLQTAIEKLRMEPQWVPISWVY
UniProt Q9BPX6: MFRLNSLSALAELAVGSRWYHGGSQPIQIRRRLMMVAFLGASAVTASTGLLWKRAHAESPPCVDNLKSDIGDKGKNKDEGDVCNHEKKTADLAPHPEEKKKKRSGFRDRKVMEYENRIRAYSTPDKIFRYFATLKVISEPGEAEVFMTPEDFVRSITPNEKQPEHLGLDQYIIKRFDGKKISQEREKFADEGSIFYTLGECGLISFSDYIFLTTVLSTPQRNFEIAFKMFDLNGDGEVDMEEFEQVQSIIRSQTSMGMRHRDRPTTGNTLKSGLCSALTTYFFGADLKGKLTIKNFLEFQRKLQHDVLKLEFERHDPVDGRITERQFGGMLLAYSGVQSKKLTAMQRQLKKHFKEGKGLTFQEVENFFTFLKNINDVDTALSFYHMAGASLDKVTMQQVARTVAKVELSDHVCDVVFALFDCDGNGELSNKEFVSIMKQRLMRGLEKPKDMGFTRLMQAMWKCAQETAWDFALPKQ
UniProt P49959: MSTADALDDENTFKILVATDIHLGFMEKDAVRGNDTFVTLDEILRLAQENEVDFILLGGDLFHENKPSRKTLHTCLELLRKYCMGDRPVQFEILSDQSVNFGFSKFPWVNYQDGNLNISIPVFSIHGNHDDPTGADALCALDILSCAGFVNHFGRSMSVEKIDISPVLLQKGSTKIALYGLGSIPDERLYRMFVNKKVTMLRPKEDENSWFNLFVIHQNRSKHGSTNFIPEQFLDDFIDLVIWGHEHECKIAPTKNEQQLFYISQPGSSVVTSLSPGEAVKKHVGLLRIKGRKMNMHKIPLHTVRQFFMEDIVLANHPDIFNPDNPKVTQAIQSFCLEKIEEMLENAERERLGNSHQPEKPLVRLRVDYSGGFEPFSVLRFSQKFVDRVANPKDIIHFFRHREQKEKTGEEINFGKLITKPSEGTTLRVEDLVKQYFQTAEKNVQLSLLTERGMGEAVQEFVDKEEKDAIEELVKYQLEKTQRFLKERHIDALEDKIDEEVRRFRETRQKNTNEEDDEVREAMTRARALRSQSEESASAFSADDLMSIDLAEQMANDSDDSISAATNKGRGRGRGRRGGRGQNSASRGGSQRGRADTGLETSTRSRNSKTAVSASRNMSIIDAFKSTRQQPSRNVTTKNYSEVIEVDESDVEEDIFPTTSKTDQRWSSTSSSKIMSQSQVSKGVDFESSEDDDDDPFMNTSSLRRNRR
UniProt O95297: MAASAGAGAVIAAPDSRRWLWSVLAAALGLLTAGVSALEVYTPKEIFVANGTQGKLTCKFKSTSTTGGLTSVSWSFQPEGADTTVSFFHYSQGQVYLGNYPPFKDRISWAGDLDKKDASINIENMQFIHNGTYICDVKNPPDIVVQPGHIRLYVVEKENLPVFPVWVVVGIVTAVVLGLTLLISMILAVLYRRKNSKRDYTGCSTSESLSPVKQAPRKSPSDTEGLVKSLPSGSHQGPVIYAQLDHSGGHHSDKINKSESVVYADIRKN
UniProt Q99583: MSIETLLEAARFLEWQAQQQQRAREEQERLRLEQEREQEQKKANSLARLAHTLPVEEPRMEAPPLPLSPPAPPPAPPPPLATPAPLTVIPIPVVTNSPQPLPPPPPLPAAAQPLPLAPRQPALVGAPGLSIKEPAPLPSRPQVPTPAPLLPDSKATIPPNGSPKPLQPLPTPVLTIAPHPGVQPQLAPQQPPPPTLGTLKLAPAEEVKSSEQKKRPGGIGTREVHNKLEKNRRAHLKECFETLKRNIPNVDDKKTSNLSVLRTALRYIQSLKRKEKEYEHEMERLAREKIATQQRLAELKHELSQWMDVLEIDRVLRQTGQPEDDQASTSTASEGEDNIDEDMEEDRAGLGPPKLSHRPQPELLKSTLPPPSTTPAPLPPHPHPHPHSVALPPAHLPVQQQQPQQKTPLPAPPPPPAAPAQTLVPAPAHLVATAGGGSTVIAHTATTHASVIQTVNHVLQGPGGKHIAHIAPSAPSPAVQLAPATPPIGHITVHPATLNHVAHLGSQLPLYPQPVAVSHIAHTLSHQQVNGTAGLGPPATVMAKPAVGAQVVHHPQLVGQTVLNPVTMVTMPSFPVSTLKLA
UniProt Q9UH92: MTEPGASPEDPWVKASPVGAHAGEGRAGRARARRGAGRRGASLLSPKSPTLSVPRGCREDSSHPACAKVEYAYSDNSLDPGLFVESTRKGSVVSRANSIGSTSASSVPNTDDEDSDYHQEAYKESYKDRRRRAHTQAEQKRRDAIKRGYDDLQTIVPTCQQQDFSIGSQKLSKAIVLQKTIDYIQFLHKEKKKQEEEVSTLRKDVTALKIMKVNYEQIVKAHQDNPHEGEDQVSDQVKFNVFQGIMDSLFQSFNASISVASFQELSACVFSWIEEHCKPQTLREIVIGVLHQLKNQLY

Key:
Assay in all cases: log2 fold change, soluble protein after heating vs DMSO (PISA); higher = thermal stabilisation; K562 cells, 10 uM, 30 min; active = over 0.2 and 3.5 SD of the protein, either way, in both replicates (recomputed)
[1] = compound: CC1=C(C=C(C=C1)NC(=O)C2=CC(=CC=C2)C(C)(C)C#N)NC3=CC4=C(C=C3)N=CN(C4=O)C
Procedure, shortened: (§1)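 Soluble protein was quantified by TMTpro 16plex LC-MS/MS after channel sums were equalised. It was obtained as the supernatant after 21,000xg for 90 min from pooled aliquots of K562 cells (2×10^6 cells/mL, 10 μM compound, 30 min) heated for 3 min across 48°C-58°C and extracted in PBS with 0.5% NP-40 at 4°C. Thermal stability values are relative to control samples and come from duplicates. They are given as log2 fold changes.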

[2] = compound: CC1=C(C=C(C=C1)NC(=O)C2=CC(=CC=C2)N(C)C)NC(=O)C3=CC=C(C=C3)O
Procedure, shortened: as §1

[3] = compound: CC1=CC=C(C=C1)SC2=C3C=C(SC3=CN=C2)C(=O)N
Procedure, shortened: as §1

[4] = compound: CC1=NC(=CC=C1)C2=C(N=C(N2)C(C)(C)C)C3=CC4=NC=CN=C4C=C3
Procedure, shortened: as §1

Nexturastat A = compound: CCCCN(Cc1ccc(C(=O)NO)cc1)C(=O)Nc1ccccc1 [Nexturastat A]
Procedure, shortened: as §1

vemurafenib = compound: CCCS(=O)(=O)Nc1ccc(F)c(C(=O)c2c[nH]c3ncc(-c4ccc(Cl)cc4)cc23)c1F [vemurafenib]
Procedure, shortened: as §1

[5] = compound: CCCS(=O)(=O)Nc1ccc(F)c(C(=O)c2c[nH]c3ncc(Cl)cc23)c1F
Procedure, shortened: as §1

[6] = compound: CCCc1cc(C)[nH]c(=O)c1CNC(=O)c1cc(-c2ccnc(N3CCN(C)CC3)c2)cc2c1cnn2C(C)C
Procedure, shortened: as §1

givinostat = compound: CCN(CC)Cc1ccc2cc(COC(=O)Nc3ccc(C(=O)NO)cc3)ccc2c1 [givinostat]
Procedure, shortened: as §1

barasertib = compound: CCN(CCCOc1ccc2c(Nc3cc(CC(=O)Nc4cccc(F)c4)[nH]n3)ncnc2c1)CCOP(=O)(O)O [barasertib]
Procedure, shortened: as §1

Target	log2 fold change [1]	log2 fold change [2]	log2 fold change [3]	log2 fold change [4]	log2 fold change (Nexturastat A)	log2 fold change (vemurafenib)	log2 fold change [5]	log2 fold change [6]	log2 fold change (givinostat)	log2 fold change (barasertib)
MRPL51 (UniProt Q4U2R6)	inactive: 0.026	inactive: -0.005	inactive: -0.065	inactive: -0.12	inactive: 0.17	inactive: -0.032	inactive: -0.042	inactive: 0.041	inactive: 0.039	inactive: -0.085
MON1B (UniProt Q7L1V2)	inactive: 0.064	inactive: -0.003	inactive: 0.071	inactive: 0.019	inactive: -0.058	inactive: -0.005	inactive: 0.032	inactive: -0.036	inactive: 0.024	inactive: 0.005
MRM1 (UniProt Q6IN84)	inactive: 0.119	inactive: 0.043	inactive: -0.002	inactive: -0.071	inactive: 0.198	inactive: -0.065	inactive: -0.106	inactive: 0.073	inactive: -0.011	inactive: -0.048
MRPL54 (UniProt Q6P161)	inactive: -0.045	inactive: 0.086	inactive: -0.044	inactive: -0.103	inactive: 0.105	inactive: -0.061	inactive: -0.052	inactive: -0.106	inactive: -0.049	inactive: -0.088
MORF4L1 isoform 2 (UniProt Q9UBU8)	inactive: -0.054	inactive: -0.025	inactive: 0	inactive: 0	inactive: 0.185	inactive: -0.004	inactive: 0.01	inactive: -0.037	inactive: -0.021	inactive: -0.02
MRPL44 (UniProt Q9H9J2)	inactive: 0.059	inactive: -0.048	inactive: -0.029	inactive: -0.047	inactive: 0.192	inactive: -0.077	inactive: -0.039	inactive: 0.091	inactive: 0.04	inactive: -0.043
MICAL3 (UniProt Q7RTP6)	inactive: 0.016	inactive: 0.061	inactive: -0.012	inactive: 0.001	inactive: -0.035	inactive: 0.026	inactive: -0.065	inactive: 0.045	inactive: 0.005	inactive: 0.004
MND1 (UniProt Q9BWT6)	inactive: 0.034	inactive: 0.021	inactive: 0	inactive: 0.025	inactive: -0.043	inactive: -0.016	inactive: -0.024	inactive: -0.091	inactive: 0.048	inactive: -0.032
MLLT1 (UniProt Q03111)	inactive: -0.018	inactive: 0.064	inactive: -0.079	inactive: -0.047	inactive: 0.033	inactive: 0.006	inactive: -0.033	inactive: 0.029	inactive: 0.066	inactive: -0.006
MRPL30 isoform 2 (UniProt Q8TCC3)	inactive: 0.096	inactive: -0.09	inactive: -0.063	inactive: -0.075	inactive: 0.284	inactive: -0.066	inactive: 0.026	inactive: 0.084	inactive: 0.06	inactive: -0.036
MIEN1 (UniProt Q9BRT3)	inactive: -0.011	inactive: -0.029	inactive: 0.036	inactive: -0.054	inactive: -0.002	inactive: 0.081	inactive: 0.073	inactive: 0.016	inactive: 0	inactive: 0.132
MRPL48 (UniProt Q96GC5)	inactive: -0.016	inactive: -0.017	inactive: -0.03	inactive: -0.034	inactive: 0.102	inactive: -0.092	inactive: -0.082	inactive: 0.046	inactive: 0.014	inactive: -0.052
MPP6 (UniProt Q9NZW5)	inactive: 0.045	inactive: -0.009	inactive: 0.004	inactive: 0.013	inactive: -0.036	inactive: 0.005	inactive: -0.01	inactive: 0.016	inactive: -0.038	inactive: 0.006
MRPL53 (UniProt Q96EL3)	inactive: 0.051	inactive: -0.037	inactive: -0.032	inactive: -0.014	inactive: 0.18	inactive: -0.135	inactive: -0.018	inactive: 0.038	inactive: -0.034	inactive: -0.059
MRPL12 (UniProt P52815)	inactive: 0.035	inactive: -0.061	inactive: -0.038	inactive: -0.017	inactive: 0.067	inactive: 0.126	inactive: -0.022	inactive: 0.083	inactive: -0.007	inactive: 0.016
MICU1 isoform 3 (UniProt Q9BPX6)	inactive: -0.002	inactive: 0.052	inactive: -0.003	inactive: -0.028	inactive: 0.117	inactive: -0.049	inactive: 0.042	inactive: -0.001	inactive: 0	inactive: 0.012
MRPL2 (UniProt Q5T653)	inactive: 0.073	inactive: -0.027	inactive: -0.124	inactive: -0.058	inactive: 0.024	inactive: 0.009	inactive: 0.008	inactive: 0.048	inactive: 0.081	inactive: 0
MRPL23 (UniProt Q16540)	inactive: 0.054	inactive: -0.003	inactive: -0.044	inactive: -0.066	inactive: 0.204	inactive: -0.135	inactive: -0.1	inactive: 0.109	inactive: 0.021	inactive: -0.09
MRPL3 (UniProt P09001)	inactive: 0.072	inactive: -0.065	inactive: -0.055	inactive: -0.05	inactive: 0.172	inactive: -0.047	inactive: -0.045	inactive: -0.044	inactive: 0.031	inactive: -0.018
MIEF1 (UniProt L0R8F8)	inactive: -0.007	inactive: 0.003	inactive: 0.019	inactive: -0.026	inactive: 0.092	inactive: 0.079	inactive: 0.102	inactive: -0.001	inactive: 0.006	inactive: 0.003
MRE11 isoform 3 (UniProt P49959)	inactive: -0.02	inactive: -0.001	inactive: -0.002	inactive: 0.027	inactive: 0.006	inactive: 0.007	inactive: -0.017	inactive: 0.12	inactive: -0.047	inactive: 0.024
MPZL1 (UniProt O95297)	inactive: -0.035	inactive: -0.011	inactive: -0.026	inactive: 0.013	inactive: -0.012	inactive: -0.027	inactive: -0.068	inactive: -0.005	inactive: -0.03	inactive: 0.011
MRPL15 (UniProt Q9P015)	inactive: 0.074	inactive: -0.045	inactive: -0.134	inactive: -0.052	inactive: 0.132	inactive: -0.063	inactive: -0.062	inactive: 0.023	inactive: 0.062	inactive: -0.044
MRPL10 isoform 2 (UniProt Q7Z7H8)	inactive: 0.105	inactive: -0.046	inactive: -0.074	inactive: -0.025	inactive: 0.116	inactive: -0.091	inactive: 0.016	inactive: -0.152	inactive: -0.089	inactive: -0.024
MRPL55 isoform 2 (UniProt Q7Z7F7)	inactive: 0.121	inactive: -0.055	inactive: 0.074	inactive: -0.064	inactive: 0.017	inactive: -0.023	inactive: 0.003	inactive: -0.036	inactive: 0.059	inactive: 0.037
MMTAG2 (UniProt Q9BU76)	inactive: 0.048	inactive: 0.021	inactive: -0.056	inactive: -0.033		inactive: -0.026	inactive: -0.015	inactive: 0.313	inactive: 0.065	inactive: -0.137
MNT (UniProt Q99583)	inactive: 0.02	inactive: -0.038	inactive: 0.181	inactive: -0.04	inactive: -0.188	inactive: 0.105	inactive: 0.105	inactive: 0.066		inactive: -0.056
MLH1 (UniProt P40692)			inactive: 0.023		inactive: -0.014		inactive: 0.276	active: 0.584		inactive: 0.11
MLX (UniProt Q9UH92)	inactive: 0.035	inactive: -0.027	inactive: 0.082	inactive: 0	inactive: 0.009		inactive: 0.008	inactive: 0.071	inactive: 0.047	inactive: 0.117
MRAS (UniProt O14807)				inactive: 0.075				inactive: -0.011	inactive: 0.092	inactive: -0.046

Single records (already shown). Values in the order: log2 fold change [1]	log2 fold change [2]	log2 fold change [3]	log2 fold change [4]	log2 fold change (Nexturastat A)	log2 fold change (vemurafenib)	log2 fold change [5]	log2 fold change [6]	log2 fold change (givinostat)	log2 fold change (barasertib)
MND1 (UniProt Q9BWT6) in the list: inactive: 0.034	inactive: 0.021	inactive: 0	inactive: 0.025	inactive: -0.043	inactive: -0.016	inactive: -0.024	inactive: -0.091	inactive: 0.048	inactive: -0.032
MLLT1 (UniProt Q03111) in the list: inactive: -0.018	inactive: 0.064	inactive: -0.079	inactive: -0.047	inactive: 0.033	inactive: 0.006	inactive: -0.033	inactive: 0.029	inactive: 0.066	inactive: -0.006
